Screen size: about 580,000 compounds; about 6,100 (1.1%) were called active. Inconclusive results, whose numbers are uncertain, are shown with a selection of clear calls. Calls come from the whole dose curve; as a rule, active = well fitted inhibition curve with a large enough effect; inconclusive = small, poorly fitted or top-dose-only effect, or another doubt; inactive = no such curve, though single readings can be large or run the other way. Where the call is inconclusive, the potency comes from a doubtful curve fit.
molecular target: Polyunsaturated fatty acid lipoxygenase ALOX12 (Homo sapiens) (UniProt P18054); assay: Primary qHTS assay for inhibitors of human arachidonate 12S-lipoxygenase (ALOX12): Round 2; settings: purified 12hLO, xylenol orange hydroperoxide absorbance; activity change, negative = inhibition: at 108 µM (top of the series) unless noted
Outline: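 Purified human 12hLO at 150 nM in 25 mM Hepes, 0.01% Triton X-100, pH 7.0, preincubated 15 min at room temperature with compound. Reaction started with 40 uM arachidonic acid, 30 min at room temperature. Hydroperoxide measured by Fe-xylenol orange, 573/405 nm absorbance ratio.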
% is set by controls: 0 for no effect and ±100 for the full control effect; potency is the fitted concentration of half-maximal effect.

Protein sequences, listed by entry. Tags and fused reporters are not part of them. Lines headed by an entry give the natural chain unless they say otherwise; changes in a name come on top.
UniProt P18054: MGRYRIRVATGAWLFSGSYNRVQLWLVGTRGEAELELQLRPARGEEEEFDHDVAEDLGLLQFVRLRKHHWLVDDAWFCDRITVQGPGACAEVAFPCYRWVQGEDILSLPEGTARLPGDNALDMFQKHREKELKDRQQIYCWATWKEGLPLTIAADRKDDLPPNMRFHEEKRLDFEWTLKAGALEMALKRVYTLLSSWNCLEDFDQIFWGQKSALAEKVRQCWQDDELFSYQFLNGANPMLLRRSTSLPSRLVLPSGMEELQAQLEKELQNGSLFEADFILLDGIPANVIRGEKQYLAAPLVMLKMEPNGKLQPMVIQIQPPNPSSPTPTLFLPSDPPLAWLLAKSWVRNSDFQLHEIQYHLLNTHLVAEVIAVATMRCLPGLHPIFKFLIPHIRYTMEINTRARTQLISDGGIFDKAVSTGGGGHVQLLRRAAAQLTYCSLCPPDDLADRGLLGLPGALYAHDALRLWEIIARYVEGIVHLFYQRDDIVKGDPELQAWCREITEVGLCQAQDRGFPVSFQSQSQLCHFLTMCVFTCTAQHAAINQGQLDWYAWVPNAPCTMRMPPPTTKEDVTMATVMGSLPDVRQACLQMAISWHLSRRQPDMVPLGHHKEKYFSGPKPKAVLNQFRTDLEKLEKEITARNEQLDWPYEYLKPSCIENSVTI

Q: For `O=C(CCCOc1ccccc1)Nc1cccc(S(=O)(=O)N2CCOCC2)c1`, which “activity change, negative = inhibition” value is on record?
A: Its value is inactive: -16.3%.

Q: For `COC(=O)C1=C(O)/C(=C\c2ccc(CNS(=O)(=O)c3ccc(Cl)cc3)o2)N=C1C`, which Potency is on record?
A: Its Potency is active: 50.1 µM.

Q: `COc1ccc2c(c1)-c1nc(/N=C/c3ccccc3O)sc1CC2` was tested. Which Potency did it give?
A: The Potency was inconclusive: 70.8 µM [inhibitor, partial curve, poor fit].

Q: With `O=C(NCC(=O)N1CCN(c2cccc(Cl)c2)CC1)NCc1ccc(F)cc1` as the compound, how does the Potency read?
A: Its Potency is inconclusive: 12.6 µM [inhibitor, full curve, poor fit].

Q: How did the Potency turn out when `C#CCOc1cccc(C2CC(=O)Nc3c2c(C)nn3-c2ncnc3nc[nH]c23)c1` (stereo not given) was run?
A: The Potency was inconclusive: 35.5 µM [inhibitor, single point].

Q: Which “activity change, negative = inhibition” value does the source give for `COc1ccc(Cn2c(C3CCN(C(=O)c4cccc(C)c4)CC3)n[nH]c2=O)cc1` here?
A: The value was inactive: -9.35%.

Q: For `C[C@H](NC(=O)c1nc[nH]c1C(=O)N1CCNCC1)C(=O)OC(C)(C)C`, which “activity change, negative = inhibition” value is on record?
A: The value was inactive: -11.8%.

Q: How did the Potency turn out when `CCN(c1ccccc1)c1ncnc2c1cnn2-c1ccccc1` was run?
A: The Potency was inconclusive: 100 µM [inhibitor, single point].

Q: For `O=C(Cn1c(=O)cnc2ccccc21)N1CCN(S(=O)(=O)c2ccccc2Br)CC1`, which Potency is on record?
A: Its Potency is inconclusive: 89.1 µM [inhibitor, single point].

Q: `Cc1ccc2c(CN(C)CCOc3ccc(Cl)cc3)cc(=O)oc2c1` was tested. Which Potency did it give?
A: Its Potency is active: 35.5 µM.

Q: With `Cc1cc(C)c(/C=N/Nc2cc(C(F)(F)F)ccc2Cl)c(C)c1` as the compound, how does the Potency read?
A: The Potency was active: 12.6 µM.

Q: For `CN(C)CC(=O)N1Cc2ccccc2CC2(CCN(CC3CCNCC3)C2)C1` (stereo not given), which Potency is on record?
A: Its Potency is inconclusive: 0.507 µM [inhibitor, partial curve].

Q: For `Cc1oc(C)c2c(=O)cc(-c3ccc4c(c3)OCO4)cc(OC(=O)c3cccc(Cl)c3)c12`, which Potency is on record?
A: The Potency was inconclusive: 56.2 µM [inhibitor, partial curve, poor fit].

Q: With `NC(=O)CC(NC(=O)Cc1ccc(Br)cc1)c1ccc(N2CCN(c3ccccn3)CC2)c([N+](=O)[O-])c1` (stereo not given) as the compound, how does the Potency read?
A: The Potency was inconclusive: 44.7 µM [inhibitor, partial curve, poor fit].

Q: With `Cc1cccc(NC(=O)c2cc(Cl)nc3ccccc23)n1` as the compound, how does the Potency read?
A: The Potency was inconclusive: 141 µM [inhibitor, single point].

Q: How did the Potency turn out when `COC(=O)CCCC1=CC2=CC(=O)C(C)(OC(=O)c3cccs3)C(=O)C2=CN1CCc1ccccn1` (stereo not given) was run?
A: The Potency was inconclusive: 31.6 µM [inhibitor, partial curve, poor fit].

Q: With `CN(Cc1cccnc1)c1nc2c(c(=O)[nH]1)CCN(Cc1ccc3cc[nH]c3c1)CC2` as the compound, how does the “activity change, negative = inhibition” value read?
A: Its value is inactive: 7.63%.

Q: How did the Potency turn out when `CN1c2ccccc2C(C)(C)C12C=Nc1c(cc(N3CCOCC3)c3ccccc13)O2` (stereo not given) was run?
A: Its Potency is inconclusive: 35.5 µM [inhibitor, partial curve, poor fit].

Q: Which Potency does the source give for `COc1ccc(CN(C)C(c2ccccc2)c2nnnn2-c2ccccc2C)c(OC)c1C` (stereo not given) here?
A: Its Potency is inconclusive: 44.7 µM [inhibitor, partial curve].

Q: For `CS(=O)(=O)c1ccccc1C(=O)NC1CCCc2ccccc21` (stereo not given), which Potency is on record?
A: The Potency was inconclusive: 141 µM [inhibitor, single point].

Q: Which “activity change, negative = inhibition” value does the source give for `CCC(=O)OCC(=O)c1cc(C)n(-c2ccc(Br)cc2)c1C` here?
A: The value was inactive: -18.4%.

Q: `O=C(COC(=O)CCC(=O)c1ccc(F)cc1)Nc1ccccc1-c1ccccc1` was tested. Which “activity change, negative = inhibition” value did it give?
A: Its value is inactive: -27.2%.

Q: `Cc1ccc(C(=O)O)cc1S(=O)(=O)NCCO` was tested. Which Potency did it give?
A: The Potency was inconclusive: 35.5 µM [inhibitor, partial curve].

Q: How did the Potency turn out when `Cc1ccccc1N1C(N)=C(C#N)C(c2ccsc2)C2=C1CC(C)(C)CC2=O` (stereo not given) was run?
A: The Potency was inconclusive: 39.8 µM [inhibitor, partial curve, poor fit].

Q: For `O=C(CCc1cc2n(n1)CCCNC2)Nc1ccc(-n2cncn2)cc1`, which Potency is on record?
A: The Potency was inconclusive: 14.1 µM [inhibitor, single point].

Q: `COc1ccc(C(=S)N2CCOCC2)cc1OC(=O)c1ccc([N+](=O)[O-])cc1` was tested. Which Potency did it give?
A: Its Potency is active: 25.1 µM.

Q: `Cc1cnc(C(=O)NCC(c2ccccc2)c2ccccc2)cn1` was tested. Which Potency did it give?
A: The Potency was inconclusive: 2.51 µM [inhibitor, full curve, poor fit].

Q: With `CCc1cccc(C)c1NC(=O)Cn1ccn(-c2ccc(OC)cc2)c(=O)c1=O` as the compound, how does the “activity change, negative = inhibition” value read?
A: Its value is inactive: 24.7%.

Q: How did the Potency turn out when `O=C(Cn1c(SCC(=O)Nc2ccc(F)cc2)nc2ccccc21)NCc1ccccc1Cl` was run?
A: Its Potency is inconclusive: 112 µM [inhibitor, single point].

Q: How did the Potency turn out when `O=C(O)C1=CC[C@@H](c2ccc(Cl)cc2)N(S(=O)(=O)c2ccc(Cl)cc2)[C@H]1c1cccc(Cl)c1` was run?
A: The Potency was inconclusive: 44.7 µM [inhibitor, partial curve, poor fit].

Q: For `COc1ccc(-c2cnc3c(c2)C(=O)N([C@H](C)CO)C[C@@H](C)[C@H](CN(C)Cc2ccccc2)O3)cc1`, which Potency is on record?
A: The Potency was inconclusive: 126 µM [inhibitor, single point].

Q: `CCc1noc(C)c1C(=O)N1CCC(c2[nH]ncc2-c2ccccc2C)CC1` was tested. Which “activity change, negative = inhibition” value did it give?
A: Its value is inactive: 15.5%.

Q: For `CC1(C(=O)NS(=O)(=O)c2cccs2)CCN1C(=O)CC1CCCC1` (stereo not given), which Potency is on record?
A: The Potency was inconclusive: 56.2 µM [inhibitor, partial curve, poor fit].

Q: How did the “activity change, negative = inhibition” value turn out when `O=C1Nc2ccccc2O[C@H]2C[C@@H]1N(Cc1ccc3ccccc3n1)C2` was run?
A: Its value is inactive: 63.4% [at 176 µM].

Q: How did the Potency turn out when `Oc1c(Br)cc(Br)cc1CNc1cnc2ccccc2c1` was run?
A: The Potency was inconclusive: 79.4 µM [inhibitor, partial curve, poor fit].

Q: Which Potency does the source give for `O=C(/C=C\c1ccco1)Nc1cc([N+](=O)[O-])ccc1F` here?
A: The Potency was inconclusive: 44.7 µM [inhibitor, partial curve, poor fit].

Q: Which Potency does the source give for `O=C(O)c1ccc(NC2=C(N3CCOCC3)C(=O)c3ccccc3C2=O)cc1` here?
A: Its Potency is inconclusive: 15.8 µM [inhibitor, partial curve, poor fit].

Q: Which Potency does the source give for `NNc1ccc(S(=O)(=O)Nc2ccccc2)cc1[N+](=O)[O-]` here?
A: Its Potency is inconclusive: 22.4 µM [inhibitor, full curve, poor fit].

Q: Which Potency does the source give for `COc1cc2c(cc1OC)C(C[C@H]1CN(C(=O)c3cccn3C)CC[C@H]1CC(=O)O)=NCC2` here?
A: Its Potency is inconclusive: 50.1 µM [inhibitor, partial curve, poor fit].

Q: `COc1ccc2c(c1)cc1n2CCN=C1N` was tested. Which Potency did it give?
A: The Potency was inconclusive: 89.1 µM [inhibitor, single point].

From PubChem BioAssay AID1671190 (National Center for Advancing Translational Sciences (NCATS), 2021)
